PubChem BioAssay AID686937 – Drosophila RNAi Screening Center, 2013
In all, the deposit lists about 23,000 reagents; below is an unselected part of those with a known target gene and a result. 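Reduced-secretion tags in replicate 1 do not always agree with the z-scores; no criterion for assigning the tags was given.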 Reagents against one gene are numbered here. A plus sign joins genes that one reagent is predicted to hit. Further read-outs or replicates are left out here. The record does not give: the amount of reagent.

Purpose: 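Genes whose loss weakens secretory pathway function in fly cells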 (primary screen)
Cell system: Drosophila S2 cells expressing secreted horseradish peroxidase
Reagents: long dsRNA against Drosophila genes
Duration: about 5.5 days (5 days dsRNA, then 12 h reporter induction)
Challenge: reporter expression induced after 5 days of dsRNA, read 12 h later; inducer not stated
Read-out: 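Chemiluminescent measurement of peroxidase in the medium 12 h after reporter induction, following 5 days of dsRNA, given as a z-score per plate; higher means more secretion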
Reading the numbers: z-score: higher = more reporter secreted into medium

{"gene knocked down": "Mst84Db", "dsRNA no.": 1, "z-score, replicate 1": 0.34}
{"gene knocked down": "Mst84Db", "dsRNA no.": 2, "z-score, replicate 1": 0.18}
{"gene knocked down": "Muc18B", "dsRNA no.": 1, "z-score, replicate 1": 0.18}
{"gene knocked down": "Muc18B", "dsRNA no.": 2, "z-score, replicate 1": -0.14}
{"gene knocked down": "bai", "dsRNA no.": 1, "z-score, replicate 1": -0.4}
{"gene knocked down": "CG17974", "dsRNA no.": 1, "z-score, replicate 1": 0}
{"gene knocked down": "CG31676", "dsRNA no.": 1, "z-score, replicate 1": -0.64}
{"gene knocked down": "Rab30", "dsRNA no.": 1, "z-score, replicate 1": 0.01}
{"gene knocked down": "CG13247", "dsRNA no.": 1, "z-score, replicate 1": 0.28}
{"gene knocked down": "grnd", "dsRNA no.": 1, "z-score, replicate 1": 0.31}
{"gene knocked down": "BckdhB", "dsRNA no.": 1, "z-score, replicate 1": 0.17}
{"gene knocked down": "CG2964", "dsRNA no.": 1, "z-score, replicate 1": -7.28, "phenotype, replicate 1": "reduced secretion"}
{"gene knocked down": "ImpE2", "dsRNA no.": 1, "z-score, replicate 1": 0.42}
{"gene knocked down": "Nup214", "dsRNA no.": 1, "z-score, replicate 1": -1.74, "phenotype, replicate 1": "reduced secretion"}
{"gene knocked down": "HLH54F", "dsRNA no.": 1, "z-score, replicate 1": -0.08}
{"gene knocked down": "CG2209", "dsRNA no.": 1, "z-score, replicate 1": 0.33}
{"gene knocked down": "CR14798", "dsRNA no.": 1, "z-score, replicate 1": 0.27}
{"gene knocked down": "PAN2", "dsRNA no.": 1, "z-score, replicate 1": 0.34}
{"gene knocked down": "Tep4", "dsRNA no.": 1, "z-score, replicate 1": 0.35}
{"gene knocked down": "eater", "dsRNA no.": 1, "z-score, replicate 1": -0.43}
{"gene knocked down": "eater", "dsRNA no.": 2, "z-score, replicate 1": -0.42}
{"gene knocked down": "CG13071", "dsRNA no.": 1, "z-score, replicate 1": 0.08}
{"gene knocked down": "CG15308", "dsRNA no.": 1, "z-score, replicate 1": 0.36}
{"gene knocked down": "dj-1beta", "dsRNA no.": 1, "z-score, replicate 1": 0.07}
{"gene knocked down": "wrm1 + wrm2", "dsRNA no.": 1, "z-score, replicate 1": 0.5}
{"gene knocked down": "CG4069", "dsRNA no.": 1, "z-score, replicate 1": -0.07}
{"gene knocked down": "PGRP-LD + Cralbp + Pmi", "dsRNA no.": 1, "z-score, replicate 1": -0.01}
{"gene knocked down": "CG42565", "dsRNA no.": 1, "z-score, replicate 1": 0.04}
{"gene knocked down": "CG14096", "dsRNA no.": 1, "z-score, replicate 1": 0.34}
{"gene knocked down": "CG2186", "dsRNA no.": 1, "z-score, replicate 1": 0.27}
{"gene knocked down": "Mp", "dsRNA no.": 1, "z-score, replicate 1": 0.11}
{"gene knocked down": "Mp", "dsRNA no.": 2, "z-score, replicate 1": 0.33}
{"gene knocked down": "Mp", "dsRNA no.": 3, "z-score, replicate 1": 0.11}
{"gene knocked down": "UQCR-11L", "dsRNA no.": 1, "z-score, replicate 1": -0.95}
{"gene knocked down": "CG15283", "dsRNA no.": 1, "z-score, replicate 1": -0.11}
{"gene knocked down": "CG34345", "dsRNA no.": 1, "z-score, replicate 1": 0.3}
{"gene knocked down": "CG1688", "dsRNA no.": 1, "z-score, replicate 1": 0.25}
{"gene knocked down": "bur", "dsRNA no.": 1, "z-score, replicate 1": 0.24}
{"gene knocked down": "Sema2b", "dsRNA no.": 1, "z-score, replicate 1": 0.69}
{"gene knocked down": "Sema2b", "dsRNA no.": 2, "z-score, replicate 1": 0.61}
{"gene knocked down": "Sema2b", "dsRNA no.": 3, "z-score, replicate 1": 0.69}

Copied from the entries so far, 3 entries:
{"gene knocked down": "HLH54F", "dsRNA no.": 1, "z-score, replicate 1": -0.08}
{"gene knocked down": "CG2209", "dsRNA no.": 1, "z-score, replicate 1": 0.33}
{"gene knocked down": "CR14798", "dsRNA no.": 1, "z-score, replicate 1": 0.27}
